The record followed here is publication PMC5828370.

Chains of the proteins cited; added tags and fusions are not shown. Residues count along the entry.
UniProt Q92743, residues 23-480: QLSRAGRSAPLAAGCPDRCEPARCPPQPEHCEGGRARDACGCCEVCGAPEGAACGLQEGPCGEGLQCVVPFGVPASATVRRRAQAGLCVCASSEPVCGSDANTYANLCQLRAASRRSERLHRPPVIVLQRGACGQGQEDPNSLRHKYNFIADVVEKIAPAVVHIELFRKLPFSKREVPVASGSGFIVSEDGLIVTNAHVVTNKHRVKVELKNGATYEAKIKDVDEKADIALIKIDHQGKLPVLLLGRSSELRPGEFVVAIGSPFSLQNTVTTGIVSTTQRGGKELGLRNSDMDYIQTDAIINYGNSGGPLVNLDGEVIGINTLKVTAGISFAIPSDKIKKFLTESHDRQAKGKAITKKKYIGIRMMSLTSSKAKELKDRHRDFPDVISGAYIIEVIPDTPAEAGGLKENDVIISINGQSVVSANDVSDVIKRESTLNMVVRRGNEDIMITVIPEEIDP

For the assay, the target named is HtrA1 (HtrA serine peptidase 1), proteolytically active, overexpressed (human) (UniProt Q92743). The experiment in a line: affinity purification with mass spectrometry; immuno-competitive capture on immobilized anti-HTRA1 with increasing free anti-HTRA1 antibody, lysates of HtrA1 and S328A overexpressing RPE cells; eluates by SDS-PAGE, in-gel trypsin, LC-MS (Orbitrap Fusion); proteins displaced by the free antibody.

No constants are given. Whether binding was seen depends on the method and setting. Binding seen in cells or lysates may run through a third protein. These calls come from enrichment with a bait or labelling near it, and not all partners need be listed.

B1: Complement C1q tumor necrosis factor-related protein 5 (protein, UniProt Q9BXJ0 16-243)
chain: SPPLDDNKIPSLCPGHPGLPGTPGHHGSQGLPGRDGRDGRDGAPGAPGEKGEGGRPGLPGPRGDPGPRGEAGPAGPTGPAGECSVPPRSAFSAKRSESRVPPPSDAPLPFDRVLVNEQGHYDAVTGKFTCQVPGVYYFAVHATVYRASLQFDLVKNGESIASFFQFFGGWPKPASLSGGAMVRLEPEDQVWVQVGVGDYIGIYASIKTDSTFSGFLVYSDWHSSPVFA
On to B1, for which the binding entry was “binds”.
